Source: the supplement of paper PMC8728848
The list shows a part of the results.

How the values were obtained:
Assay in all cases: glycan array binding signal (z-score within array); higher = stronger binding
Details in all cases: glycan notation: IUPAC condensed, linker removed
[1] = target: Fuc(a1-2)[Gal(a1-3)]Gal(b1-4)GlcNAc(b1-2)Man(a1-3)[Fuc(a1-2)[Gal(a1-3)]Gal(b1-4)GlcNAc(b1-2)Man(a1-6)]Man(b1-4)GlcNAc(b1-4)GlcNAc
Method in brief: (§1)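 Glycan array data came from 3228 arrays in the Consortium for Functional Glycomics database, and only arrays with an available protein sequence were kept. Glycan names were put into IUPAC-condensed notation, and columns mapping to the same glycan were averaged. The binding signal is a within-array Z-score, averaged across arrays of one protein sequence run at different concentrations or buffers and across linkers. A negative Z-score can be read as non-binding.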

[2] = target: Fuc(a1-2)[Gal(a1-3)]Gal(b1-4)GlcNAc(b1-2)Man(a1-3)[Fuc(a1-2)[Gal(a1-3)]Gal(b1-4)GlcNAc(b1-2)Man(a1-6)]Man(b1-4)GlcNAc(b1-4)[Fuc(a1-6)]GlcNAc
Method in brief: as §1

[3] = target: Fuc(a1-2)[Gal(a1-3)]Gal(b1-4)GlcNAc(b1-3)GalNAc
Method in brief: as §1

[4] = target: Fuc(a1-2)[Gal(a1-3)]Gal(b1-4)GlcNAc(b1-3)[Fuc(a1-2)[Gal(a1-3)]Gal(b1-4)GlcNAc(b1-6)]GalNAc
Method in brief: as §1

[5] = target: Fuc(a1-2)[Gal(a1-3)]Gal(b1-4)GlcNAc(b1-6)GalNAc
Method in brief: as §1

[6] = target: Fuc(a1-2)[Gal(a1-3)]Gal(b1-4)[Fuc(a1-3)]Glc
Method in brief: as §1

[7] = target: Fuc(a1-2)[Gal(a1-3)]Gal(b1-4)[Fuc(a1-3)]GlcNAc
Method in brief: as §1

[8] = target: Fuc(a1-2)[Gal(a1-3)]Gal(b1-4)[Fuc(a1-3)]GlcNAc(b1-3)GalNAc
Method in brief: as §1

[9] = target: Fuc(a1-2)[Gal(a1-4)]Gal(b1-4)GlcNAc
Method in brief: as §1

[10] = target: Fuc(a1-2)[GalNAc(a1-3)]Gal
Method in brief: as §1

[11] = target: Fuc(a1-2)[GalNAc(a1-3)]Gal(b1-3)GalNAc(a1-3)[Fuc(a1-2)]Gal(b1-4)GlcNAc
Method in brief: as §1

[12] = target: Fuc(a1-2)[GalNAc(a1-3)]Gal(b1-3)GalNAc(b1-3)Gal(a1-4)Gal(b1-4)Glc
Method in brief: as §1

[13] = target: Fuc(a1-2)[GalNAc(a1-3)]Gal(b1-3)GlcNAc
Method in brief: as §1

[14] = target: Fuc(a1-2)[GalNAc(a1-3)]Gal(b1-3)GlcNAc(b1-2)Man(a1-3)[Fuc(a1-2)[GalNAc(a1-3)]Gal(b1-3)GlcNAc(b1-2)Man(a1-6)]Man(b1-4)GlcNAc(b1-4)GlcNAc
Method in brief: as §1

[15] = target: Fuc(a1-2)[GalNAc(a1-3)]Gal(b1-3)GlcNAc(b1-2)Man(a1-3)[Fuc(a1-2)[GalNAc(a1-3)]Gal(b1-3)GlcNAc(b1-2)Man(a1-6)]Man(b1-4)GlcNAc(b1-4)[Fuc(a1-6)]GlcNAc
Method in brief: as §1

[16] = target: Fuc(a1-2)[GalNAc(a1-3)]Gal(b1-3)GlcNAc(b1-3)GalNAc
Method in brief: as §1

[17] = target: Fuc(a1-2)[GalNAc(a1-3)]Gal(b1-3)GlcNAc(b1-6)GalNAc
Method in brief: as §1

[18] = target: Fuc(a1-2)[GalNAc(a1-3)]Gal(b1-4)Glc
Method in brief: as §1

[19] = target: Fuc(a1-2)[GalNAc(a1-3)]Gal(b1-4)GlcNAc
Method in brief: as §1

[20] = target: Fuc(a1-2)[GalNAc(a1-3)]Gal(b1-4)GlcNAc(b1-2)Man
Method in brief: as §1

[21] = target: Fuc(a1-2)[GalNAc(a1-3)]Gal(b1-4)GlcNAc(b1-2)Man(a1-3)[Fuc(a1-2)[GalNAc(a1-3)]Gal(b1-4)GlcNAc(b1-2)Man(a1-6)]Man(b1-4)GlcNAc(b1-4)GlcNAc
Method in brief: as §1

[22] = target: Fuc(a1-2)[GalNAc(a1-3)]Gal(b1-4)GlcNAc(b1-2)Man(a1-3)[Fuc(a1-2)[GalNAc(a1-3)]Gal(b1-4)GlcNAc(b1-2)Man(a1-6)]Man(b1-4)GlcNAc(b1-4)[Fuc(a1-6)]GlcNAc
Method in brief: as §1

[23] = target: Fuc(a1-2)[GalNAc(a1-3)]Gal(b1-4)GlcNAc(b1-3)Gal(b1-4)GlcNAc
Method in brief: as §1

[24] = target: Fuc(a1-2)[GalNAc(a1-3)]Gal(b1-4)GlcNAc(b1-3)Gal(b1-4)GlcNAc(b1-3)Gal(b1-4)GlcNAc
Method in brief: as §1

[25] = target: Fuc(a1-2)[GalNAc(a1-3)]Gal(b1-4)GlcNAc(b1-3)GalNAc
Method in brief: as §1

[26] = target: Fuc(a1-2)[GalNAc(a1-3)]Gal(b1-4)GlcNAc(b1-3)[Fuc(a1-2)[GalNAc(a1-3)]Gal(b1-4)GlcNAc(b1-6)]GalNAc
Method in brief: as §1

[27] = target: Fuc(a1-2)[GalNAc(a1-3)]Gal(b1-4)GlcNAc(b1-6)GalNAc
Method in brief: as §1

[28] = target: Fuc(a1-2)[GalNAc(a1-3)]Gal(b1-4)[Fuc(a1-3)]GlcNAc
Method in brief: as §1

[29] = target: Fuc(a1-2)[GalNAc(a1-3)]Gal(b1-4)[Fuc(a1-3)]GlcNAc(b1-3)GalNAc
Method in brief: as §1

[30] = target: Fuc(a1-2)[GalNAc(a1-4)]Gal(b1-4)GlcNAc
Method in brief: as §1

B1: AT3G09350(27) (Arabidopsis thaliana), Q84J81 (protein)
chain: MAKDGPNWDGLLKWSLSHADGTRPTRQLSEEDRKWFMEAMQSQTVDVVKRMKEITLVMQTPEQVLVEHGVTPEDIQDLLDELQEHVESIDMANDLHSIGGLVPLLSFLKNSHANIRAKAADVVSTIVQNNPRSQELVMETNALESLLSNFTSDTDIHARTQALGAISSLIRHNKPGVTAFKLANGYAGLRDALASDSVRFQRKALNLLQYLLQEDDSDRSIATGLGFPRVMMHLASSDDAEIREAALRGLLELSREKNDGSSSIDKSDEKLRQLLEERIKGITLMSQEDLETVKEERQLVDLLWSICYNEPSSLREKGLVVLPGEDALPPDVASKLFEPPLRASAANRNATEKKDEPMKLLGP
glycan array binding signal (z-score) [1]: -0.513
glycan array binding signal (z-score) [2]: -0.574
glycan array binding signal (z-score) [3]: 0.027
glycan array binding signal (z-score) [4]: 0.43
glycan array binding signal (z-score) [5]: -0.12
glycan array binding signal (z-score) [6]: -0.726
glycan array binding signal (z-score) [7]: -0.094
glycan array binding signal (z-score) [8]: -0.362
glycan array binding signal (z-score) [9]: 1.74
glycan array binding signal (z-score) [10]: -0.506
glycan array binding signal (z-score) [11]: -0.375
glycan array binding signal (z-score) [12]: 0.388
glycan array binding signal (z-score) [13]: -0.419
glycan array binding signal (z-score) [14]: -0.446
glycan array binding signal (z-score) [15]: -0.677
glycan array binding signal (z-score) [16]: 0.1
glycan array binding signal (z-score) [17]: -0.293
glycan array binding signal (z-score) [18]: -0.001
glycan array binding signal (z-score) [19]: -0.334
glycan array binding signal (z-score) [20]: -0.584
glycan array binding signal (z-score) [21]: 0.499
glycan array binding signal (z-score) [22]: 0.007
glycan array binding signal (z-score) [23]: -0.256
glycan array binding signal (z-score) [24]: -0.337
glycan array binding signal (z-score) [25]: -0.271
glycan array binding signal (z-score) [26]: -0.282
glycan array binding signal (z-score) [27]: -0.317
glycan array binding signal (z-score) [28]: 0.498
glycan array binding signal (z-score) [29]: 5.85
glycan array binding signal (z-score) [30]: -0.215
